Reference: PubChem BioAssay AID504444 (National Center for Advancing Translational Sciences (NCATS), 2011)
Among all 360,000 compounds or so, about 7,500 (2.1%) were called active. The shares of active, inactive and inconclusive entries below differ from those in the screen. The call rests on the fitted dose curve; in most records, active means well fitted inhibition curve with a large enough effect; inconclusive means small, poorly fitted or top-dose-only effect, or effect the other way; inactive means flat fitted curve, though single readings scatter. A potency beside an inconclusive call is a rough fit, not a confirmed value.

Test: Nrf2 qHTS screen for inhibitors; further: nearly all actives have a fitted effect of over 60% in size
Conditions: A549 ARE-Fluc reporter, luciferase luminescence, 18-24 h; series mostly up to 46 µM
Outline: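 Two sequential reads on A549 ARE_Fluc cells exposed to compound for 18-24 h: a CellTiter-Fluor fluorescence read for viability, then a luciferase luminescence read for Nrf2/ARE activity.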
Potency means the concentration at half of the fitted maximal effect.

SMILES | Potency
Cc1ccc(NC(=O)CN(C)S(=O)(=O)c2cccs2)c(Br)c1 | inconclusive: 0.231 µM [activator, full curve, poor fit]
CN(Cc1ccccc1F)C(=O)CN1CCN(S(=O)(=O)c2ccc3c(c2)OCCCO3)CC1 | inconclusive: 23.1 µM [falling, partial curve, poor fit]
CCOC(=O)c1cc([N+](=O)[O-])cc([N+](=O)[O-])c1Sc1ncnc2nc[nH]c12 | inactive
Cc1ccc(O)c(NS(=O)(=O)c2cccc3nsnc23)c1 | inconclusive: 20.6 µM [activator, single point]
Cc1ccc(Nc2nc3ccccc3s2)c(C)c1 | inconclusive: 2.31 µM [activator, partial curve]
CCN1CCSc2ccc(C(=O)NCc3ccc(OC(C)C)cc3)cc21 | inconclusive: 14.6 µM [falling, single point]
CCc1sc(C(=O)Nc2nc(-c3ccccn3)cs2)cc1C | inconclusive: 29.1 µM [falling, single point]
COc1cccc(NC(=S)N/N=C2\CC3CCC2(C)C3(C)C)c1 (stereo not given) | inconclusive: 20.6 µM [activator, partial curve]
O=C(CCNC(=O)Cn1cnc2ccccc2c1=O)NCC1COc2ccccc2O1 (stereo not given) | inactive
COc1ccc(/C=N/Nc2ccccc2C(=O)O)cc1 | inconclusive: 0.184 µM [activator, full curve, poor fit]
O=C1[C@H](Cc2ccccc2)NCC=CC[C@H](c2ccc(Cl)cc2)N1Cc1ccccc1 | inconclusive: 29.1 µM [falling, partial curve, poor fit]
Cc1cc(Cl)ccc1NC(=S)N1CCN(Cc2ccccc2)CC1 | inconclusive: 29.1 µM [falling, single point]
Cc1ccc(NC(=O)c2nc(S(C)(=O)=O)ncc2N(Cc2ccc(C(C)(C)C)cc2)Cc2ccco2)cc1C | inactive
C#Cc1ccc([C@@H]2C=C(C(=O)N3CCN(Cc4ccccc4)CC3)O[C@H](OCC)[C@H]2CCCO)cc1 | inconclusive: 29.1 µM [falling, single point]
COCCCNc1nc2nonc2nc1N1CCN(C2CCCC2)CC1 | inconclusive: 32.6 µM [activator, partial curve, poor fit]
Cn1cnc2c1c(=O)[nH]c(=O)n2Cc1ccccc1 | inconclusive: 10.3 µM [falling, partial curve]
COc1ccccc1Oc1ccc(S(=O)(=O)Nc2cccnc2)cc1 | inconclusive: 16.4 µM [falling, partial curve]
CC1Oc2ccccc2N(CC(=O)NCc2ccc3c(c2)OCO3)C1=O (stereo not given) | inconclusive: 11.6 µM [activator, partial curve, poor fit]
COc1ccc(C2=Nn3c(nnc3-c3cccnc3)SC2)cc1OC | inconclusive: 20.6 µM [falling, single point]
CC(C)(C)Cc1nnc(NC(=O)CSc2ccccc2)s1 | inconclusive: 18.4 µM [activator, partial curve]
Cc1ccc(NC(=O)CC2SC3=NCCCN3C2=O)c(C)c1 (stereo not given) | inconclusive: 0.0052 µM [activator, full curve, poor fit]
COc1ccc(CNC(=O)CSc2nnnn2Cc2ccccc2)cc1 | inconclusive: 0.116 µM [falling, full curve, poor fit]

SMILES | Potency
Cc1cccn2c(=O)c3cc(C(=O)NCC4CCCO4)c(=N)n(CCN4CCOCC4)c3nc12 (stereo not given) | inconclusive: 3.26 µM [activator, full curve, poor fit]
COC1C(CO)OC(n2cnc3c(=S)nc(N)[nH]c32)C1O (stereo not given) | inactive
O=C(N/N=C/c1cccc2ccccc12)c1ccncc1 | inactive
CCCCN1CC(c2nc3ccccc3n2CCCCOc2cc(C)ccc2C)CC1=O (stereo not given) | inconclusive: 29.1 µM [activator, single point]
COCCCNS(=O)(=O)c1ccc2c3c(cccc13)C(=O)S2 | inconclusive: 16.4 µM [falling, partial curve, poor fit]
Oc1ccc(Oc2ccc(Oc3ccc(O)cc3)cc2)cc1 | inconclusive: 7.31 µM [falling, partial curve, poor fit]
CCOC(=O)Cc1ccc(NC(=O)NCc2c(-n3cccc3)sc3c2CCCC3)cc1 | inactive
N=C(N)SCCc1cccc(CCSC(=N)N)c1 | inactive
Clc1cccc(Cl)c1Cn1c(-c2cccnc2Cl)nc2ccccc21 | inconclusive: 25.9 µM [falling, partial curve, poor fit]
Cc1ccc(NC(=O)c2c(C)cc(C)nc2SCC(=O)Nc2ccc(Br)cc2)cc1 | inconclusive: 29.1 µM [falling, single point]
CCOC(=O)c1cnc(-n2cc(C)cn2)nc1Nc1ccccc1OC | inactive
Cc1ccc(-c2cc(C(=O)NNC(=O)c3csc(N4CCOCC4)n3)c3ccccc3n2)cc1 | active: 20.6 µM
COc1ccc(/C=C/C(=O)Nc2cc(C(F)(F)F)ccc2Cl)cc1 | inconclusive: 8.2 µM [falling, partial curve, poor fit]
Cn1c(NN)nc2sc3c(c2c1=O)CC(C)(C)OC3 | inconclusive: 29.1 µM [falling, single point]
CCCCN1C(=O)c2ccc(C(=O)N(C)CC(=O)Nc3ccc(OCC)c(OCC)c3)cc2C1=O | inconclusive: 5.8 µM [activator, full curve]
CCOC(=O)N1CCN(C(=O)c2ccc3c(=O)n(-c4ccccc4F)c(=S)[nH]c3c2)CC1 | inconclusive: 20.6 µM [falling, single point]
O=C(/C=C/c1cccc([N+](=O)[O-])c1)Nc1cccc(NC(=O)c2ccco2)c1 | active: 20.6 µM
CCn1c(=NC(=O)C2COc3ccccc3O2)sc2c(C)ccc(OC)c21 (stereo not given) | inconclusive: 29.1 µM [falling, single point]
CC1=C(C)CC(C(=O)NCc2ccc3c(c2)OCO3)C(C(=O)O)C1 (stereo not given) | inconclusive: 32.6 µM [falling, single point]
Cc1cc(C)c(NC(=O)Cn2c(=O)c3cccn3c3ccccc32)c(C)c1 | inconclusive: 18.4 µM [falling, single point]
COc1ccccc1S(=O)Cc1ccc(C(=O)NCCc2ccc(Cl)cc2)o1 (stereo not given) | inactive
COCCCN(C(=S)Nc1cc(Cl)cc(Cl)c1)C(C)c1ccccn1 (stereo not given) | inconclusive: 32.6 µM [falling, single point]

Shown field by field: part of the list above
CN(Cc1ccccc1F)C(=O)CN1CCN(S(=O)(=O)c2ccc3c(c2)OCCCO3)CC1
  Potency: inconclusive: 23.1 µM [falling, partial curve, poor fit]
C#Cc1ccc([C@@H]2C=C(C(=O)N3CCN(Cc4ccccc4)CC3)O[C@H](OCC)[C@H]2CCCO)cc1
  Potency: inconclusive: 29.1 µM [falling, single point]
CC1Oc2ccccc2N(CC(=O)NCc2ccc3c(c2)OCO3)C1=O (stereo not given)
  Potency: inconclusive: 11.6 µM [activator, partial curve, poor fit]
CCCCN1CC(c2nc3ccccc3n2CCCCOc2cc(C)ccc2C)CC1=O (stereo not given)
  Potency: inconclusive: 29.1 µM [activator, single point]

Additional results follow.

SMILES | Potency
C/C(=C\c1ccccc1)C(=O)NC1CCSC1=O (stereo not given) | inconclusive: 6.51 µM [activator, full curve]
COCCCNC(=O)c1cc(Nc2ccc(OC)cc2OC)nc2ccccc12 | inconclusive: 25.9 µM [falling, partial curve, poor fit]
CCCCN(C)C(=O)CCC(=O)Nc1ccc2nc(N3CCOCC3)cc(C)c2c1 | inconclusive: 0.259 µM [activator, full curve]
CCC(=O)N1N=C(c2ccc(NS(=O)(=O)c3ccccc3)cc2)CC1c1ccco1 (stereo not given) | inconclusive: 29.1 µM [falling, single point]
Cn1nc(C(=O)N2CCCc3ccccc32)c2ccccc2c1=O | inconclusive: 4.61 µM [falling, full curve, poor fit]
CCOCCCNC(=O)c1ccc(-n2c(-c3ccccc3)cc3c2CCCC3)cc1 | inconclusive: 29.1 µM [falling, single point]
CC(=O)NC(C)CCc1ccccc1 (stereo not given) | inconclusive: 0.411 µM [activator, full curve, poor fit]
O=C(NCc1n[nH]c(=S)n1-c1ccc(Br)cc1)c1cccs1 | inconclusive: 3.66 µM [activator, partial curve, poor fit]
CCn1cc([N+](=O)[O-])c(C(=O)Nc2ccn(C34CC5CC(CC(C5)C3)C4)n2)n1 | inactive
Cc1cccc2cc(C#N)c(NCCNC(=O)COc3ccccc3)nc12 | inconclusive: 32.6 µM [falling, single point]
C=CCNCCOCCOc1ccc(C)cc1Br | inconclusive: 29.1 µM [activator, single point]
CN(C)S(=O)(=O)c1cccc(NC(=O)COc2nc3ccccc3nc2N2CCOCC2)c1 | inconclusive: 18.4 µM [falling, partial curve, poor fit]
CCC1Nc2ncnc(N3CCN(c4ccccc4)CC3)c2N(Cc2ccc(Cl)cc2)C1=O (stereo not given) | inconclusive: 32.6 µM [falling, single point]
COc1ccc(CNC(=S)Nc2ccccc2Cl)cc1 | inactive
Cc1c(Br)c([N+](=O)[O-])nn1CCCC(=O)N1CCN(c2ccccc2)CC1 | inactive
CCN(CC)c1ccc2cc(C(=O)Nc3ccccn3)c(=O)oc2c1 | inconclusive: 0.366 µM [activator, full curve]
CC1CCCN(C(=O)c2cc3ccc4cccnc4c3[nH]2)C1 (stereo not given) | inconclusive: 32.6 µM [falling, partial curve, poor fit]
C=C(C)c1ccc(C(C)(C)NC(=O)N(Cc2ccccc2)Cc2ccco2)cc1 | inconclusive: 23.1 µM [falling, partial curve, poor fit]
O=C(COc1ccc(Cl)cc1Cl)NCC1(N2CCOCC2)CCCCC1 | active: 23.1 µM
CCCOc1ccc(C2=NNC(c3cccs3)=Nc3ccc(OC)cc32)cc1 | inconclusive: 16.4 µM [falling, partial curve, poor fit]
O=C(c1cccc(S(=O)(=O)Nc2ccccc2Cl)c1)N1CCN(C(=O)c2ccco2)CC1 | inconclusive: 23.1 µM [falling, partial curve, poor fit]
